Assay: peptide synthesis
Details: whole synthesis

NH2-KWKVFKKIEK-KWKVFKKIEK-AGP-KWKVFKKIEK-COOH
final purity (method not given): about 96%

Reference: PMC4195615 (PLoS ONE, 2014)
